According to publication PMC7230731, “Marine-Inspired Bis-indoles Possessing Antiproliferative Activity against Breast Cancer; Design, Synthesis, and Biological Evaluation” (Marine Drugs, 2020):

Test system: MDA-MB-231 cells
Assay: SRB antiproliferative assay, MDA-MB-231
Type: cell-based
Details: Homo sapiens, MDA-MB-231, 48 h, MDA-MB-231 triple-negative breast cancer cells, mean ± S.D. of three experiments
Protocol: 1. Anti-proliferative action toward human breast cell lines […]
and non-tumorigenic human breast epithelial cell line (MCF-10A) have been obtained from American Type Culture Collection (ATCC). The cells were maintained in Dulbecco's modified Eagle's medium (DMEM) supplemented with 10% heat inactivated fetal calf serum (GIBCO), penicillin (100 U/ml) and streptomycin (100 µg/ml) at 37 °C in humidified atmosphere containing 5% CO2. […]
grown in a 25 cm2 flask in 5 ml of culture medium.
The anti-proliferative activity of the tested compounds was measured in vitro using the Sulfo-Rhodamine-B stain (SRB) assay. Briefly, Cells were inoculated in 96-well microtiter plate (5X104 cells/ well) for 24 h before treatment with the tested compounds to allow attachment of cell to the wall of the plate. Tested compounds were dissolved in DMSO at 1 mg/ml immediately before use and diluted to the appropriate volume just before addition to the cell culture. Different concentrations of tested compounds, doxorubicin and sorafenib were added to the cells (three wells were prepared for each […]
atmosphere of 5% CO2. After 48 h cells were fixed, washed, and stained for 30 min with 0.4% (w/v) SRB dissolved in 1% acetic acid. Unbound dye was removed by four washes with 1% acetic acid, and attached stain was recovered with Tris-EDTA buffer. Color intensity was measured in an ELISA reader. […]

Compound `CN[C@@H]1C[C@H]2O[C@@](C)([C@@H]1OC)n1c3ccccc3c3c4c(c5c6ccccc6n2c5c31)C(=O)NC4` [Staurosporine, reference compound] has an IC50 of 10.3 ± 0.72 µM.
